# Laboratory results as given in PubChem BioAssay AID588590 (National Center for Advancing Translational Sciences (NCATS), 2011).
# Amino acid sequences for entries named in this document (tags omitted). A change or cut given only in a name is not applied to a line headed by its entry.
# UniProt Q9UNA4: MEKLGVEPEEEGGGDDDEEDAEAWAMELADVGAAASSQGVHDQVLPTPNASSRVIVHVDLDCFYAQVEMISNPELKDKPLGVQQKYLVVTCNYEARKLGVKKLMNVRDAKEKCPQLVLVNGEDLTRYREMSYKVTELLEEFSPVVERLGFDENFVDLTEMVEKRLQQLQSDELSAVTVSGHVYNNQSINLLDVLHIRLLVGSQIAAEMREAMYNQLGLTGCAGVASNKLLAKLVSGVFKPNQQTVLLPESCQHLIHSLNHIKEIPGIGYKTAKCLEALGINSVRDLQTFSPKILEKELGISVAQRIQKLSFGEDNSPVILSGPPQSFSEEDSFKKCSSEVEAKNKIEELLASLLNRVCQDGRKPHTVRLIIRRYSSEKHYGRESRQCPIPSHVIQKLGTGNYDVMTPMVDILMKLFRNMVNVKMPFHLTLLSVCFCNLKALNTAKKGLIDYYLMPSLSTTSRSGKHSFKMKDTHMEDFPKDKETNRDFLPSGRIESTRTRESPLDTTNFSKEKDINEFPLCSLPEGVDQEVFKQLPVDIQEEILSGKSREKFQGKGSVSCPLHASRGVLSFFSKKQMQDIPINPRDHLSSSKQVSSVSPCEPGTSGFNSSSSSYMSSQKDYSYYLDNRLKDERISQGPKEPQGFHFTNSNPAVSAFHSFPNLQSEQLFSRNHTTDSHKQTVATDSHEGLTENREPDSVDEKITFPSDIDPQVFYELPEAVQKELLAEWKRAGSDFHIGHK
# Where “and” joins values, the source holds several entries; their conditions need not be identical. Equal values may be shown once. The whole screen tested about 390,000 compounds, of which about 4,000 (1%) were called active. Inconclusive means that the source gave no clear call. Such entries were picked first, then a sample of the others. The call rests on the fitted dose curve; in most records, active means well fitted inhibition curve with a large enough effect; inconclusive means small, poorly fitted or top-dose-only effect, or another doubt; inactive means no such curve, though single readings can be large or run the other way. A potency beside an inconclusive call is a rough fit, not a confirmed value.
# Molecular target: DNA polymerase iota (Homo sapiens) (UniProt Q9UNA4)
# Assay: qHTS for Inhibitors of Polymerase Iota
# Settings: Pol iota fluorescent replication assay, 10 min; series mostly up to 115 µM; activity, negative = inhibition: at the top concentration
# Summary of the method: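 Pol iota at 10 nM preincubated 15 min with compounds at room temperature; reaction started with fluorescent substrate, 50 nM final. Fluorescence read kinetically at 0 and 10 min; buffer-only wells as negative control.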
# Potency means the concentration at half of the fitted maximal effect.
Structure (SMILES),Potency,"activity, negative = inhibition"
O=P1(NC2CCCC2)COc2ccccc2OC1,"inconclusive: 22.4 µM [inhibitor, partial curve]",–
N#CC1=C(N)Oc2cc(O)ccc2C1c1ccc2c(c1)OCO2 (stereo not drawn),"inconclusive: 12.6 µM [inhibitor, partial curve, poor fit]",–
O=C1NC(=O)N(C2CCCCC2)C(=O)C1C1c2ccccc2C(=O)N1Cc1ccccc1 (stereo not drawn),"inconclusive: 15.8 µM [inhibitor, full curve, poor fit]",–
CC(C)(C)OC(=O)N(CCc1ccccc1)Cc1ccc(OCc2cccc(NC(=O)c3ccccc3)c2)cc1,"inconclusive: 50.1 µM [inhibitor, partial curve, poor fit]",–
CC1=C(N2CC2)C(=O)C(CO)=C(N2CC2)C1=O,"inconclusive: 39.8 µM [inhibitor, full curve]",–
C=CC[C@@H](C)CC(=O)C(CCCN=[N+]=[N-])SOOc1ccccc1 (stereo partly drawn),"inconclusive: 39.8 µM [inhibitor, single point]",–
Nc1ncc(S(=O)(=O)c2ccc(Cl)cc2)c(N)n1,"inconclusive: 3.16 µM [inhibitor, full curve, poor fit]",–
COC(=O)C1=C(c2ccc(F)cc2OCc2ccccc2)C[C@@H]2CC[C@H]1N2C(=O)NCc1ccco1,"inconclusive: 50.1 µM [inhibitor, partial curve]",–
O=[N+]([O-])c1ccc(Cl)c([N+](=O)[O-])c1,"inconclusive: 50.1 µM [inhibitor, partial curve] and inconclusive: 794 nM [inhibitor, full curve, poor fit]",–
COc1ccccc1/C=C1\C(=O)NC(=S)N(c2ccccc2)C1=O,"inconclusive: 22.4 µM [inhibitor, single point]",–
Cc1ccc(-n2c(/C=C/c3cccc4ccccc34)nc3ccccc3c2=O)cc1,"inconclusive: 100 µM [inhibitor, partial curve, poor fit]",–
O=C1CC(=O)N(c2ccc3c(c2)OCO3)C(=O)N1,"inconclusive: 35.5 µM [inhibitor, single point]",–
Cc1c(C(=O)Nc2ccccc2Cl)oc2ccc(S(=O)(=O)N3CCCCC3)cc12,"inconclusive: 100 µM [inhibitor, partial curve, poor fit]",–
CC12CCCCC1(O)[N+](=O)C1=C(CCCC1)N2[O-] (stereo not drawn),"inconclusive: 89.1 µM [inhibitor, partial curve, poor fit]",–
CC(C)C[C@H]1C(=O)N2CCC[C@H]2[C@]2(O)O[C@](NC(=O)[C@@H]3C=C4c5cccc6[nH]cc(c56)C[C@H]4N(C)C3)(C(C)C)C(=O)N12,active: 11.2 µM,–
C1CCC2S[C@H]3CCCCC3NC2C1 (stereo partly drawn),–,inactive: 31.6%
COC(=O)C1=C(c2cccc(NC(C)=O)c2)C[C@@H]2CC[C@H]1N2C,"inconclusive: 89.1 µM [inhibitor, single point]",–
CC1=Nc2ccccc2/C1=C/c1c(O)[nH]c(=O)[nH]c1=O,"inconclusive: 14.1 µM [inhibitor, full curve]",–
c1ccc2c(c1)[IH]c1ccccc1-2,"inconclusive: 44.7 µM [inhibitor, partial curve]",–

Structure (SMILES),Potency,"activity, negative = inhibition"
CC1CCCN(c2ccc(C(=O)N3CCC4(CC3)OCCO4)cc2[N+](=O)[O-])C1 (stereo not drawn),–,inactive: 143%
Cc1ccc(-n2c(C)cc(/C=C3\C(=O)NC(=O)N(C)C3=O)c2C)cc1C,"inconclusive: 79.4 µM [inhibitor, partial curve]",–
CCCCCCC(C)(C)c1ccc([C@@H]2C[C@H](O)CC[C@H]2CCCO)c(O)c1,"inconclusive: 17.8 µM [inhibitor, partial curve]",–
Cc1ccc(/C=C2/C(=O)NC(=O)N(CCc3ccc(F)cc3)C2=O)s1,–,inactive: 5.28%
Cc1ccccc1-n1c(O)c(C=Nc2ccc(N(C)C)cc2)c(=O)[nH]c1=O,"inconclusive: 11.2 µM [inhibitor, full curve, poor fit]",–
COc1ccc(C2N(c3cc(C)on3)C(=O)C3CCCN32)cc1 (stereo not drawn),"inconclusive: 100 µM [inhibitor, single point]",–
CCN(C[C@H]1N[C@@](CC)(C(=O)OC)[C@H]2C(=O)N(Cc3ccccc3)C(=O)[C@@H]12)C(=O)Nc1ccc(Cl)cc1,–,inactive: 38.1%
COCCOC(=O)C1=C(N)Oc2c(c(=O)oc3ccccc23)C1c1ccncc1 (stereo not drawn),"inconclusive: 100 µM [inhibitor, single point]",–
Cc1cc(C)c(C(=O)CN2CCOCC2)c(C)c1,"inconclusive: 50.1 µM [inhibitor, partial curve]",–
N#CC(c1ccccc1)N1CCOCC1 (stereo not drawn),"inconclusive: 89.1 µM [inhibitor, single point]",–
CCCC(=O)NC1=C(N2CC2)C(=O)C(NC(=O)CCC)=C(N2CC2)C1=O,"inconclusive: 14.1 µM [inhibitor, full curve, poor fit]",–
O=C1CC23c4ccccc4N4C(=O)CC5OCC=C6CN1C2CC6C5C43 (stereo not drawn),–,inactive: 16.7%
COC(=O)C1=C(c2ccc(-c3ccccc3)c(F)c2)C[C@@H]2CC[C@H]1N2C(=O)NCc1ccco1,"inconclusive: 12.6 µM [inhibitor, partial curve, poor fit]",–
Cc1cc(-c2cc(C)c(N)c(C)c2)cc(C)c1N,"inconclusive: 79.4 µM [inhibitor, partial curve, poor fit]",–
O=C(O)/C=C/c1ccc2c(c1)OCO2,–,inactive: -23.3%
C=CCN1CC[C@]23c4c5ccc(O)c4O[C@@H]2/C(=N/N=C2\CC[C@@]4(O)C6Cc7ccc(O)c8c7[C@@]4(CCN6CC=C)[C@@H]2O8)CC[C@@]3(O)C1C5,–,inactive: -4.33% [at 58.9 µM]
Clc1ccc2[nH]c3c(c2c1)CCNC3,"inconclusive: 79.4 µM [inhibitor, partial curve, poor fit]",–
O=C1c2cc([N+](=O)[O-])ccc2-c2ncccc21,"inconclusive: 11.2 µM [inhibitor, full curve, poor fit]",–
COc1cc2c(cc1OC)C1C(=O)c3ccc4c(c3OC1CO2)CC(C(C)C)O4 (stereo not drawn),"inconclusive: 63.1 µM [inhibitor, partial curve, poor fit]",–

# A second format for 2 compounds above.
Structure (SMILES)	Potency	activity, negative = inhibition
Cc1ccc(/C=C2/C(=O)NC(=O)N(CCc3ccc(F)cc3)C2=O)s1	–	inactive: 5.28%
O=C(O)/C=C/c1ccc2c(c1)OCO2	–	inactive: -23.3%
